The list is a part of this screen's results and no random one: it gathers tests that were run many times, whatever their T/C, doses with no T/C, and many T/C values between a quarter and a half above the control. Further doses and runs are listed elsewhere. T/C gives the treated animals as a percentage of the vehicle group. Some entries give survivors of the animals treated and no T/C: the source holds a T/C of zero for them, seemingly a mark for toxic or unscored doses. Some survivor counts are full or nearly so, which does not show that the dose was tolerated: survival well below the control is almost never listed, so the zero probably covers shortened survival too. Counts of survivors are from the toxicity check (mostly the fifth day) where no day follows; animals may have died later. Schedules are NCI's codes, read here as Q, the interval in days (D) or hours (H), X, the number of doses. Some doses were run more than once; their values stand side by side, smallest first. Some schedules carry Z or #; the key to these is not given. For survival time, the PubChem record calls one and a half times the control and up active, and a quarter to a half above the control has no call in these data; cut-offs in other NCI protocols can differ. Some T/C values are followed by the survivors on the day toxicity was checked, most often the fifth; without a count, all were alive then.
Test system: L1210 leukemia ip in BDF1 mice, survival T/C
Experiment: NCI In Vivo Anticancer Drug Screen. Data for tumor model L1210 Leukemia (intraperitoneal) in B6D2F1 (BDF1) mice
Settings: higher T/C = longer survival
[1] = T/C endpoint: mean survival time, dose: 20.0 mg/kg/injection, schedule: Q01DX009 (ip), vehicle: saline

Structure (SMILES): N#[N+]c1cnc([O-])[nH]c1=O
- survivor count (T/C endpoint: mean survival time, dose: 16.0 mg/kg/injection, schedule: Q## X002 (ip), vehicle: carboxymethylcellulose (CMC)): 5 of 10
- T/C (T/C endpoint: mean survival time, dose: 16.0 mg/kg/injection, schedule: Q## X003 (ip), vehicle: carboxymethylcellulose (CMC)): 146 % of control
- T/C (T/C endpoint: mean survival time, dose: 16.0 mg/kg/injection, schedule: Q## X008 (ip), vehicle: carboxymethylcellulose (CMC)): 130 % of control
- T/C (T/C endpoint: mean survival time, dose: 16.0 mg/kg/injection, schedule: Q## X016 (ip), vehicle: carboxymethylcellulose (CMC)): 129 % of control
- T/C (T/C endpoint: mean survival time, dose: 19.0 mg/kg/injection, schedule: Q01DX001 (ip), vehicle: alkali diluted with saline): 148 % of control
- survivor count (T/C endpoint: mean survival time, dose: 20.0 mg/kg/injection, schedule: Q01DX005 (ip), vehicle: Klucel (hydroxypropylcellulose) (HPC)): 4 of 6
- T/C (T/C endpoint: mean survival time, dose: 20.0 mg/kg/injection, schedule: Q01DX005 (ip), vehicle: alkali diluted with saline): 147 % of control
- survivor count (T/C endpoint: mean survival time, dose: 20.0 mg/kg/injection, schedule: Q01DX005 (ip), vehicle: saline): 3 of 6
- T/C [1]: 103 % of control
- survivor count [1]: 0 of 6 and 1 of 6
- survivor count (T/C endpoint: mean survival time, dose: 20.0 mg/kg/injection, schedule: Q01DX010 (ip), vehicle: saline): 1 of 6 and 2 of 6
- survivor count (T/C endpoint: mean survival time, dose: 20.0 mg/kg/injection, schedule: Q01DX Z (im), vehicle: saline): 2 of 6
- survivor count (T/C endpoint: mean survival time, dose: 20.0 mg/kg/injection, schedule: Q01DX Z (ip), vehicle: saline): 0 of 6
- survivor count (T/C endpoint: mean survival time, dose: 20.0 mg/kg/injection, schedule: Q01DX Z (sc), vehicle: steroid suspending solution): 3 of 6
- T/C (T/C endpoint: mean survival time, dose: 20.0 mg/kg/injection, schedule: Q04DX003 (ip), vehicle: Klucel (hydroxypropylcellulose) (HPC)): 146 % of control
- T/C (T/C endpoint: mean survival time, dose: 20.0 mg/kg/injection, schedule: Q04DX003 (ip), vehicle: alkali diluted with saline): 141 % of control
- T/C (T/C endpoint: mean survival time, dose: 20.0 mg/kg/injection, schedule: Q04DX003 (ip), vehicle: saline): 129 % of control
- survivor count (T/C endpoint: mean survival time, dose: 20.0 mg/kg/injection, schedule: Q#A X Z (ip), vehicle: methylcellulose (MC)): 6 of 6
- T/C (T/C endpoint: mean survival time, dose: 30.0 mg/kg/injection, schedule: Q01DX001 (ip), vehicle: alkali diluted with saline): 134 % of control [5 of 6 alive]
- survivor count (T/C endpoint: mean survival time, dose: 30.0 mg/kg/injection, schedule: Q01DX001 (ip), vehicle: saline): 0 of 6
- survivor count (T/C endpoint: mean survival time, dose: 30.0 mg/kg/injection, schedule: Q03DX Z (ip), vehicle: methylcellulose (MC)): 2 of 6
- survivor count (T/C endpoint: mean survival time, dose: 32.0 mg/kg/injection, schedule: Q01DX001 (ip), vehicle: carboxymethylcellulose (CMC)): 5 of 10
- survivor count (T/C endpoint: mean survival time, dose: 32.0 mg/kg/injection, schedule: Q01DX001 (sc), vehicle: carboxymethylcellulose (CMC)): 2 of 10
- survivor count (T/C endpoint: mean survival time, dose: 32.0 mg/kg/injection, schedule: Q01DX009 (ip), vehicle: carboxymethylcellulose (CMC)): 0 of 10
- survivor count (T/C endpoint: mean survival time, dose: 32.0 mg/kg/injection, schedule: Q01DX009 (sc), vehicle: carboxymethylcellulose (CMC)): 0 of 10
- survivor count (T/C endpoint: mean survival time, dose: 32.0 mg/kg/injection, schedule: Q## X002 (ip), vehicle: carboxymethylcellulose (CMC)): 0 of 10
- survivor count (T/C endpoint: mean survival time, dose: 32.0 mg/kg/injection, schedule: Q## X003 (ip), vehicle: carboxymethylcellulose (CMC)): 0 of 10
- T/C (T/C endpoint: mean survival time, dose: 32.0 mg/kg/injection, schedule: Q## X008 (ip), vehicle: carboxymethylcellulose (CMC)): 136 % of control [9 of 10 alive]
- T/C (T/C endpoint: mean survival time, dose: 32.0 mg/kg/injection, schedule: Q## X016 (ip), vehicle: carboxymethylcellulose (CMC)): 130 % of control
- T/C (T/C endpoint: mean survival time, dose: 32.0 mg/kg/injection, schedule: Q## X024 (ip), vehicle: carboxymethylcellulose (CMC)): 135 % of control
- survivor count (T/C endpoint: mean survival time, dose: 35.0 mg/kg/injection, schedule: Q07DX Z (ip), vehicle: methylcellulose (MC)): 0 of 6
- survivor count (T/C endpoint: mean survival time, dose: 40.0 mg/kg/injection, schedule: Q04DX003 (ip), vehicle: Klucel (hydroxypropylcellulose) (HPC)): 0 of 6
- survivor count (T/C endpoint: mean survival time, dose: 40.0 mg/kg/injection, schedule: Q04DX003 (ip), vehicle: alkali diluted with saline): 2 of 6
- survivor count (T/C endpoint: mean survival time, dose: 40.0 mg/kg/injection, schedule: Q04DX003 (ip), vehicle: saline): 0 of 6, 1 of 6, 2 of 6
- survivor count (T/C endpoint: mean survival time, dose: 60.0 mg/kg/injection, schedule: Q01DX001 (ip), vehicle: alkali diluted with saline): 0 of 6
- survivor count (T/C endpoint: mean survival time, dose: 60.0 mg/kg/injection, schedule: Q01DX001 (ip), vehicle: saline): 0 of 6
- survivor count (T/C endpoint: mean survival time, dose: 60.0 mg/kg/injection, schedule: Q03DX Z (ip), vehicle: methylcellulose (MC)): 0 of 6
- survivor count (T/C endpoint: mean survival time, dose: 64.0 mg/kg/injection, schedule: Q01DX001 (ip), vehicle: carboxymethylcellulose (CMC)): 0 of 10
- survivor count (T/C endpoint: mean survival time, dose: 64.0 mg/kg/injection, schedule: Q01DX001 (sc), vehicle: carboxymethylcellulose (CMC)): 0 of 10
- survivor count (T/C endpoint: mean survival time, dose: 64.0 mg/kg/injection, schedule: Q01DX Z (oral), vehicle: methylcellulose (MC)): 2 of 7
- survivor count (T/C endpoint: mean survival time, dose: 64.0 mg/kg/injection, schedule: Q## X002 (ip), vehicle: carboxymethylcellulose (CMC)): 0 of 10
- survivor count (T/C endpoint: mean survival time, dose: 64.0 mg/kg/injection, schedule: Q## X003 (ip), vehicle: carboxymethylcellulose (CMC)): 0 of 10
- survivor count (T/C endpoint: mean survival time, dose: 64.0 mg/kg/injection, schedule: Q## X008 (ip), vehicle: carboxymethylcellulose (CMC)): 5 of 10
- survivor count (T/C endpoint: mean survival time, dose: 64.0 mg/kg/injection, schedule: Q## X016 (ip), vehicle: carboxymethylcellulose (CMC)): 2 of 10
- survivor count (T/C endpoint: mean survival time, dose: 64.0 mg/kg/injection, schedule: Q## X024 (ip), vehicle: carboxymethylcellulose (CMC)): 6 of 10
- survivor count (T/C endpoint: mean survival time, dose: 70.0 mg/kg/injection, schedule: Q07DX Z (ip), vehicle: methylcellulose (MC)): 0 of 6
- survivor count (T/C endpoint: mean survival time, dose: 80.0 mg/kg/injection, schedule: Q01DX006 (iv), vehicle: saline): 0 of 6
- T/C (T/C endpoint: mean survival time, dose: 80.0 mg/kg/injection, schedule: Q01DX Z (oral), vehicle: saline): 125 % of control
- survivor count (T/C endpoint: mean survival time, dose: 120.0 mg/kg/injection, schedule: Q01DX001 (ip), vehicle: alkali diluted with saline): 0 of 6
- survivor count (T/C endpoint: mean survival time, dose: 120.0 mg/kg/injection, schedule: Q01DX001 (ip), vehicle: saline): 0 of 6 and 1 of 6
- survivor count (T/C endpoint: mean survival time, dose: 120.0 mg/kg/injection, schedule: Q03DX Z (ip), vehicle: methylcellulose (MC)): 0 of 6
- survivor count (T/C endpoint: mean survival time, dose: 140.0 mg/kg/injection, schedule: Q07DX Z (ip), vehicle: methylcellulose (MC)): 0 of 6
- survivor count (T/C endpoint: mean survival time, dose: 160.0 mg/kg/injection, schedule: Q01DX009 (oral), vehicle: carboxymethylcellulose (CMC)): 6 of 10
- survivor count (T/C endpoint: mean survival time, dose: 160.0 mg/kg/injection, schedule: Q01DX Z (oral), vehicle: saline): 2 of 6
- survivor count (T/C endpoint: mean survival time, dose: 280.0 mg/kg/injection, schedule: Q07DX Z (ip), vehicle: methylcellulose (MC)): 0 of 6
- survivor count (T/C endpoint: mean survival time, dose: 320.0 mg/kg/injection, schedule: Q01DX Z (oral), vehicle: saline): 0 of 6
- survivor count (T/C endpoint: mean survival time, dose: 640.0 mg/kg/injection, schedule: Q01DX001 (oral), vehicle: carboxymethylcellulose (CMC)): 0 of 10
- T/C (T/C endpoint: median survival time, dose: 2.5 mg/kg/injection, schedule: Q01DX009 (ip), vehicle: saline): 127 and 142 % of control [5 of 6 alive]
- T/C (T/C endpoint: median survival time, dose: 5.0 mg/kg/injection, schedule: Q01DX009 (ip), vehicle: saline): 144 % of control
- survivor count (T/C endpoint: median survival time, dose: 20.0 mg/kg/injection, schedule: Q01DX009 (ip), vehicle: saline): 3 of 6 and 4 of 6

— PubChem BioAssay AID248 (DTP/NCI, 2004)
